# This is one part of the list.
# B1: AT5G17240(42) (Arabidopsis thaliana), Q6NQJ8 (protein)
# chain: MDLEHQTMETFLRWAAEIGISDSIDSSRFRDSCLGHSLSVSDFPDAGGRGLGAARELKKGELVLKVPRKALMTTESIIAKDLKLSDAVNLHNSLSSTQILSVCLLYEMSKEKKSFWYPYLFHIPRDYDLLATFGNFEKQALQVEDAVWATEKATAKCQSEWKEAGSLMKELELKPKFRSFQAWLWASATISSRTLHVPWDSAGCLCPVGDLFNYDAPGDYSNTPQGPESANNVEEAGLVVETHSERLTDGGFEEDVNAYCLYARRNYQLGEQVLLCYGTYTNLELLEHYGFMLEENSNDKVFIPLETSLFSLASSWPKDSLYIHQDGKLSFALISTLRLWLIPQSQRDKSVMRLVYAGSQISVKNEILVMKWMSEKCGSVLRDLPTSVTEDTVLLHNIDKLQDPELRLEQKETEAFGSEVRAFLDANCLWDVTVLSGKPIEFSRKTSRMLSKWRWSVQWRLSYKRTLADCISYCNEKMNNLLGTQDRLRDL
# What was measured:
# Assay in all cases: glycan array binding signal (z-score within array); higher = stronger binding
# Details in all cases: glycan notation: IUPAC condensed, linker removed
# [1] = target: Fuc(a1-2)[GalNAc(b1-3)]Gal
# Procedure, shortened: (§1)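 Negative Z-scores can be read as non-binding. The Z-score is calculated within each array and then averaged across arrays of one protein sequence at different concentrations or buffers and across linkers. Arrays, 3228 in all, were curated from the Consortium for Functional Glycomics database and kept only where the protein sequence was available.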
# Fuc(a1-3)GlcNAc = target: Fuc(a1-3)GlcNAc
# Procedure, shortened: as §1
# [2] = target: Fuc(a1-3)[Gal(b1-4)]Glc6S
# Procedure, shortened: as §1
# [3] = target: Fuc(a1-3)[Gal(b1-4)]GlcNAc
# Procedure, shortened: as §1
# [4] = target: Fuc(a1-3)[Gal(b1-4)]GlcNAc(b1-2)Man
# Procedure, shortened: as §1
# [5] = target: Fuc(a1-3)[Gal(b1-4)]GlcNAc(b1-2)Man(a1-3)[Fuc(a1-3)[Gal(b1-4)]GlcNAc(b1-2)Man(a1-6)]Man(b1-4)GlcNAc(b1-4)GlcNAc
# Procedure, shortened: as §1
# [6] = target: Fuc(a1-3)[Gal(b1-4)]GlcNAc(b1-2)Man(a1-3)[Fuc(a1-3)[Gal(b1-4)]GlcNAc(b1-2)Man(a1-6)]Man(b1-4)GlcNAc(b1-4)[Fuc(a1-6)]GlcNAc
# Procedure, shortened: as §1
# [7] = target: Fuc(a1-3)[Gal(b1-4)]GlcNAc(b1-3)Gal(b1-3)[Fuc(a1-4)]GlcNAc
# Procedure, shortened: as §1
# [8] = target: Fuc(a1-3)[Gal(b1-4)]GlcNAc(b1-3)Gal(b1-4)[Fuc(a1-3)]GlcNAc
# Procedure, shortened: as §1
# [9] = target: Fuc(a1-3)[Gal(b1-4)]GlcNAc(b1-3)Gal(b1-4)[Fuc(a1-3)]GlcNAc(b1-3)Gal(b1-4)[Fuc(a1-3)]GlcNAc
# Procedure, shortened: as §1
# [10] = target: Fuc(a1-3)[Gal(b1-4)]GlcNAc(b1-3)GalNAc
# Procedure, shortened: as §1
# [11] = target: Fuc(a1-3)[Gal(b1-4)]GlcNAc(b1-6)GalNAc
# Procedure, shortened: as §1
# [12] = target: Fuc(a1-3)[Gal(b1-4)]GlcNAc(b1-6)[Gal(b1-3)GlcNAc(b1-3)]Gal(b1-4)Glc
# Procedure, shortened: as §1
# [13] = target: Fuc(a1-3)[Gal(b1-4)]GlcNAc6S
# Procedure, shortened: as §1
# [14] = target: Fuc(a1-3)[Gal3S(b1-4)]Glc
# Procedure, shortened: as §1
# [15] = target: Fuc(a1-3)[Gal3S(b1-4)]GlcNAc
# Procedure, shortened: as §1
# [16] = target: Fuc(a1-3)[Gal3S(b1-4)]GlcNAc6S
# Procedure, shortened: as §1
# [17] = target: Fuc(a1-3)[GalNAc(b1-4)]GlcNAc
# Procedure, shortened: as §1
# [18] = target: Fuc(a1-3)[GalNAc(b1-4)]GlcNAc6S
# Procedure, shortened: as §1
# Fuc(a1-4)GlcNAc = target: Fuc(a1-4)GlcNAc
# Procedure, shortened: as §1
# Fuc(b1-3)GlcNAc = target: Fuc(b1-3)GlcNAc
# Procedure, shortened: as §1
# Gal(a1-2)Gal = target: Gal(a1-2)Gal
# Procedure, shortened: as §1
# Gal(a1-3)Gal = target: Gal(a1-3)Gal
# Procedure, shortened: as §1
# Gal(a1-3)Gal(b1-3)GlcNAc = target: Gal(a1-3)Gal(b1-3)GlcNAc
# Procedure, shortened: as §1
# [19] = target: Gal(a1-3)Gal(b1-3)GlcNAc(b1-2)Man
# Procedure, shortened: as §1
# [20] = target: Gal(a1-3)Gal(b1-3)GlcNAc(b1-2)Man(a1-3)[Gal(a1-3)Gal(b1-3)GlcNAc(b1-2)Man(a1-6)]Man(b1-4)GlcNAc(b1-4)GlcNAc
# Procedure, shortened: as §1
# [21] = target: Gal(a1-3)Gal(b1-3)GlcNAc(b1-3)GalNAc
# Procedure, shortened: as §1
# [22] = target: Gal(a1-3)Gal(b1-3)GlcNAc(b1-6)GalNAc
# Procedure, shortened: as §1
# [23] = target: Gal(a1-3)Gal(b1-3)[Fuc(a1-4)]GlcNAc(b1-2)Man(a1-3)[Gal(a1-3)Gal(b1-3)[Fuc(a1-4)]GlcNAc(b1-2)Man(a1-6)]Man(b1-4)GlcNAc(b1-4)GlcNAc
# Procedure, shortened: as §1
# Gal(a1-3)Gal(b1-4)Glc = target: Gal(a1-3)Gal(b1-4)Glc
# Procedure, shortened: as §1
# Gal(a1-3)Gal(b1-4)GlcNAc = target: Gal(a1-3)Gal(b1-4)GlcNAc
# Procedure, shortened: as §1
# [24] = target: Gal(a1-3)Gal(b1-4)GlcNAc(b1-2)Man
# Procedure, shortened: as §1
# [25] = target: Gal(a1-3)Gal(b1-4)GlcNAc(b1-2)Man(a1-3)[Gal(a1-3)Gal(b1-4)GlcNAc(b1-2)Man(a1-6)]Man(b1-4)GlcNAc(b1-4)GlcNAc
# Procedure, shortened: as §1
# [26] = target: Gal(a1-3)Gal(b1-4)GlcNAc(b1-3)GalNAc
# Procedure, shortened: as §1
# [27] = target: Gal(a1-3)Gal(b1-4)GlcNAc(b1-6)GalNAc
# Procedure, shortened: as §1
# [28] = target: Gal(a1-3)Gal(b1-4)[Fuc(a1-3)]GlcNAc
# Procedure, shortened: as §1
# [29] = target: Gal(a1-3)Gal(b1-4)[Fuc(a1-3)]GlcNAc(b1-2)Man(a1-3)[Gal(a1-3)Gal(b1-4)[Fuc(a1-3)]GlcNAc(b1-2)Man(a1-6)]Man(b1-4)GlcNAc(b1-4)GlcNAc
# Procedure, shortened: as §1
# Gal(a1-3)GalNAc = target: Gal(a1-3)GalNAc
# Procedure, shortened: as §1
# [30] = target: Gal(a1-3)[Gal(a1-4)]Gal(b1-4)GlcNAc
# Procedure, shortened: as §1
# [31] = target: Gal(a1-4)Gal(b1-3)GlcNAc(b1-2)Man(a1-3)[Gal(a1-4)Gal(b1-3)GlcNAc(b1-2)Man(a1-6)]Man(b1-4)GlcNAc(b1-4)GlcNAc
# Procedure, shortened: as §1
# Gal(a1-4)Gal(b1-4)Glc = target: Gal(a1-4)Gal(b1-4)Glc
# Procedure, shortened: as §1
# Gal(a1-4)Gal(b1-4)GlcNAc = target: Gal(a1-4)Gal(b1-4)GlcNAc
# Procedure, shortened: as §1
# [32] = target: Gal(a1-4)Gal(b1-4)GlcNAc(b1-2)Man(a1-3)[Gal(a1-4)Gal(b1-4)GlcNAc(b1-2)Man(a1-6)]Man(b1-4)GlcNAc(b1-4)GlcNAc
# Procedure, shortened: as §1
# [33] = target: Gal(a1-4)Gal(b1-4)GlcNAc(b1-3)Gal(b1-4)Glc
# Procedure, shortened: as §1
# Gal(a1-4)GlcNAc = target: Gal(a1-4)GlcNAc
# Procedure, shortened: as §1
binder,measurement,setting,value
B1,glycan array binding signal (z-score),[1],0.807
same,glycan array binding signal (z-score),Fuc(a1-3)GlcNAc,-0.341
same,glycan array binding signal (z-score),[2],-0.406
same,glycan array binding signal (z-score),[3],-0.312
same,glycan array binding signal (z-score),[4],-0.27
same,glycan array binding signal (z-score),[5],-0.087
same,glycan array binding signal (z-score),[6],0.044
same,glycan array binding signal (z-score),[7],0.623
same,glycan array binding signal (z-score),[8],0.117
same,glycan array binding signal (z-score),[9],0.478
same,glycan array binding signal (z-score),[10],-0.031
same,glycan array binding signal (z-score),[11],-0.064
same,glycan array binding signal (z-score),[12],-0.405
same,glycan array binding signal (z-score),[13],0.225
same,glycan array binding signal (z-score),[14],-0.147
same,glycan array binding signal (z-score),[15],0.076
same,glycan array binding signal (z-score),[16],-0.017
same,glycan array binding signal (z-score),[17],0.252
same,glycan array binding signal (z-score),[18],-0.174
same,glycan array binding signal (z-score),Fuc(a1-4)GlcNAc,0.106
same,glycan array binding signal (z-score),Fuc(b1-3)GlcNAc,-0.541
same,glycan array binding signal (z-score),Gal(a1-2)Gal,-0.211
same,glycan array binding signal (z-score),Gal(a1-3)Gal,-0.466
same,glycan array binding signal (z-score),Gal(a1-3)Gal(b1-3)GlcNAc,0.863
same,glycan array binding signal (z-score),[19],-0.179
same,glycan array binding signal (z-score),[20],-0.175
same,glycan array binding signal (z-score),[21],-0.914
same,glycan array binding signal (z-score),[22],-0.304
same,glycan array binding signal (z-score),[23],0.28
same,glycan array binding signal (z-score),Gal(a1-3)Gal(b1-4)Glc,-0.219
same,glycan array binding signal (z-score),Gal(a1-3)Gal(b1-4)GlcNAc,-0.36
same,glycan array binding signal (z-score),[24],-0.667
same,glycan array binding signal (z-score),[25],-0.094
same,glycan array binding signal (z-score),[26],-0.333
same,glycan array binding signal (z-score),[27],0.284
same,glycan array binding signal (z-score),[28],-0.657
same,glycan array binding signal (z-score),[29],-0.001
same,glycan array binding signal (z-score),Gal(a1-3)GalNAc,1.94
same,glycan array binding signal (z-score),[30],8.82
same,glycan array binding signal (z-score),[31],0.298
same,glycan array binding signal (z-score),Gal(a1-4)Gal(b1-4)Glc,4.63
same,glycan array binding signal (z-score),Gal(a1-4)Gal(b1-4)GlcNAc,0.387
same,glycan array binding signal (z-score),[32],0.355
same,glycan array binding signal (z-score),[33],-0.492
same,glycan array binding signal (z-score),Gal(a1-4)GlcNAc,-0.595

# Reformatted: results already given
binder | measurement | setting | value
B1 | glycan array binding signal (z-score) | Fuc(a1-3)GlcNAc | -0.341
same | glycan array binding signal (z-score) | [2] | -0.406
same | glycan array binding signal (z-score) | [3] | -0.312
same | glycan array binding signal (z-score) | [4] | -0.27
same | glycan array binding signal (z-score) | [5] | -0.087
same | glycan array binding signal (z-score) | [6] | 0.044
same | glycan array binding signal (z-score) | [7] | 0.623
same | glycan array binding signal (z-score) | [8] | 0.117
same | glycan array binding signal (z-score) | [9] | 0.478
same | glycan array binding signal (z-score) | [10] | -0.031
same | glycan array binding signal (z-score) | [11] | -0.064
same | glycan array binding signal (z-score) | [12] | -0.405

# From the supplement of paper PMC8728848
